Construct, isoform or probe ends are uncertain for at least one entry.
Test system: NF-kB (recombinant)
Test: EMSA
Settings: PS bonds from first to ninth base from 5' end of SEQ:8; 50 ng/uL NF-kB; 0.1 uM hairpins, 10 nM miR-21, TE buffer, room temperature for HCR; free HCR product bands hardly detected; purified recombinant protein; protein details: Cayman Chemical; label: FAM-dT at nucleotide 21 of SEQ:8

“TCAACATCAGTCTGATAAGCTAGGGACTTTCCTAGCTTATCAGACT / TAGCTTATCAGACTGATGTTGAAGTCTGATAAGCTAGGAAAGTCCC / UAGCUUAUCAGACUGAUGUUGA [HCR product of FAM-HP1(16) and HP2(16) initiated by miR-21]”: binds.

— patent publication US20240352468
